# Out of some 340,000 compounds screened, about 170 (0.05%) were called active. The shares of active, inactive and inconclusive entries below differ from those in the screen. Calls come from the whole dose curve; as a rule, active = well fitted inhibition curve with a large enough effect in the signal ratio, with a control signal flat (not every such curve was filed as active); inconclusive = small, poorly fitted or top-dose-only effect, or effect the other way, or a change in a side signal; inactive = flat fitted curve, though single readings scatter; the % refers to the signal ratio. Potencies beside an inconclusive call are fits to weak or partial responses and may not hold up.
# Test: qHTS Assay to Find Inhibitors of Chronic Active B-Cell Receptor Signaling;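 for activity change, negative = inhibition: plate controls were basal doxycycline-induced cells for no effect and cells given 10 µM MG132 for full effect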
# Conditions: ABC-DLBCL IkBa-CBG/CBR reporter, luminescence ratio (green luciferase fused to IkBa over red control in TMD8 lymphoma cells), 4 h; activity change, negative = inhibition: at 46.1 µM (top of the series) unless noted
# Summary of the method: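 Concentration-response series (up to 46 uM) were applied to TMD8 dual-reporter cells for 4 h at 37C with doxycycline. Green/red ratio, after filter-overlap correction, defined %Activity; red signal alone was normalised to basal cells and zero luminescence.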
# Potency is the fitted concentration of half-maximal effect.
SMILES,"activity change, negative = inhibition",Potency
CC1=C(/C=C/C(C)=C/C=C/C(C)=C/C(=O)Nc2ccc(O)cc2)C(C)(C)CCC1,inconclusive: -5%,–
Cc1cc(NC(=O)c2cccs2)n(-c2nc3ccccc3[nH]2)n1,inactive,–
O=C(Nc1cccc(-n2cccn2)c1)C1CCCN(Cc2ccc(C#CCCO)cc2)C1 (stereo not drawn),–,"inconclusive: 10 µM [falling, partial curve]"
CCCCSc1n[nH]c(N)n1,inconclusive: 5.38%,–
COc1ccc(C(=O)Nc2ccc3[nH]ncc3c2)cc1,–,"inconclusive: 12.6 µM [falling, partial curve]"
Cc1cccc(NC(=O)c2cccc(C(F)(F)F)c2)c1,inconclusive: 1.89%,–
Cc1ccc(/C=C/C(=O)c2c(C)cc(C)[nH]c2=O)cc1,–,"inconclusive: 12.6 µM [falling, partial curve]"
O=C(Nc1ccc(Cl)cc1C(=O)O)c1ccc2c(c1)C(=O)N(Cc1ccco1)C2=O,–,"inconclusive: 16.4 µM [falling, partial curve]"
O=C(CNC(=O)c1ccccc1F)N/N=C/c1ccco1,–,"inconclusive: 35.5 µM [falling, single point]"
Cc1ccc(-n2nnnc2SCC(=O)Nc2cccc(NC(=O)c3ccco3)c2)cc1C,–,"inconclusive: 3.16 µM [falling, partial curve]"
COc1ccc2c(c1)c(CC(=O)Nc1cc(C)ccc1C)c(C)n2C(=O)c1ccc(Cl)cc1,inconclusive: 8.18%,–
O=C(NCc1ccc(Cl)cc1)N1CCN(Cc2ccccc2)CC1,inconclusive: 0.185%,–
COc1ccc(-c2cn(Cc3ccc(C(=O)c4ccccc4)cc3)nn2)cc1,–,"inconclusive: 4.47 µM [falling, full curve, poor fit]"
O=C(N/N=C/c1cc([N+](=O)[O-])cc(Br)c1O)C12CC3CCC(CC(C3)C1)C2,inconclusive: -2.73%,–
CC1=NNC(=O)C(CC(=O)Nc2ccc(Cl)c(Cl)c2)C1 (stereo not drawn),inconclusive: 6.23%,–
CC(=O)Nc1ccc(NC(=O)c2nccnc2C(=O)O)cn1,inactive,–
COc1ccc(C(=O)Cc2cc3cccc(OC)c3oc2=O)cc1,inconclusive: -22.4%,–
Cc1ccc(/C=C/C(=O)OC(C)C(=O)Nc2ncc(Cl)cc2Cl)o1 (stereo not drawn),inconclusive: 1.17%,–
O=C(COC(=O)c1cc2ccccc2oc1=O)Nc1ccc(F)cc1F,–,"inconclusive: 35.5 µM [falling, single point]"
CCOC(=O)C1C(=O)NC(N2CCc3ccccc32)=NC1c1ccccc1 (stereo not drawn),inconclusive: 4.01%,–
Nc1ccccc1Sc1ccc(C(F)(F)F)cc1[N+](=O)[O-],inconclusive: 17.9%,–
NNC(=O)c1cncc(Br)c1,inconclusive: -8.63%,–
O=C(C1=NN[C@@H]2C(=O)N(Cc3ccccc3)C(=O)[C@H]12)c1ccc([N+](=O)[O-])cc1,inconclusive: 9.57%,–
CCOc1ccccc1C(=O)N/N=C/c1coc2ccc(C)cc2c1=O,–,"inconclusive: 35.5 µM [falling, single point]"
COCCN1Cc2cccc(C(=O)Nc3ccc4c(c3)OCCO4)c2C1=O,inconclusive: 22.7%,–
Cc1ccc2occ(/C=N/NC(=O)c3ccncc3)c(=O)c2c1,inactive,–

SMILES,"activity change, negative = inhibition",Potency
COc1ccc(-c2nc3scc(CCNS(=O)(=O)c4c(C)cc(C)cc4C)n3n2)cc1OC,inactive,–
Cn1nnnc1Sc1ccc([N+](=O)[O-])cc1Cl,inactive,–
CCCC(NCC(O)COc1ccc(-c2ccccc2)cc1)c1ccccc1 (stereo not drawn),inactive,–
COc1ccc(C(=O)CC(=O)C(=O)Nc2ccc(Cl)cc2)cc1,inconclusive: -16.6%,–
O=C(Nn1cnc2ccccc2c1=O)C1CCCCC1,inactive,–
CCCN(CC(=O)Nc1ccccc1OC)C(=O)c1cc(-c2cccs2)nn1-c1ccccc1,inconclusive: 5.66%,–
Cc1ccccc1CC(=O)N1CCCC(CCC(=O)N2CCN(c3ccccn3)CC2)C1 (stereo not drawn),–,"inconclusive: 35.5 µM [falling, single point]"
Cc1c(NS(=O)(=O)c2cccc(C(=O)N3CCC(C(N)=O)CC3)c2)c(=O)n(-c2ccccc2)n1C,inconclusive: 1.89%,–
CC(C)Cc1ccc(C(=O)NCCOc2ccccc2)o1,–,"inconclusive: 6.31 µM [rising, full curve, poor fit]"
C=C1CCC[C@]2(C)C[C@H]3OC(=O)C(CNCC(C)C)[C@H]3CC12 (stereo partly drawn),–,"inconclusive: 22.4 µM [falling, single point]"
NC(=O)Nc1ccccc1C(=O)Nc1ccc2ccccc2c1,–,"inconclusive: 22.4 µM [falling, single point]"
COc1ccc(OC)c(NC(=O)c2cccnc2Sc2cc(C)ccc2C)c1,inconclusive: -12.9%,–
CCc1nnc(NC(=O)C2Cc3ccccc3C(=O)O2)s1 (stereo not drawn),inconclusive: 13.8%,–
O=C(Nc1ccc(-c2csc(Nc3cccc(C(F)(F)F)c3)n2)cc1)c1cccc(C(F)(F)F)c1,inconclusive: 14.8%,–
COc1ccc(NC(=O)CN(C)CC(=O)N(C)C2(C#N)CCC(C)CC2)cc1 (stereo not drawn),inactive,–
COc1ccc(Nc2nc(N)nc(CSc3nccn3C)n2)cc1,–,"inconclusive: 0.501 µM [falling, full curve, poor fit]"
CCOc1ccccc1NS(=O)(=O)c1c(C)noc1C,inconclusive: -13.9%,–
CCc1ccc(-c2nnn(CC(=O)N(C3CCCC3)C3CCS(=O)(=O)C3)n2)cc1 (stereo not drawn),–,"inconclusive: 6.51 µM [falling, partial curve]"
COc1cc(C2C=C(C34CC5CC(CC(C5)C3)C4)NC(=S)N2)cc(OC)c1OC (stereo not drawn),inactive,–
O=C(NCc1cccnc1)C1CCN(c2ccc(S(=O)(=O)N3CCOCC3)cc2Cl)CC1,inconclusive: -21.6%,–
CCOC(=O)c1cccc(NC(=O)CCc2nc(-c3ccccc3F)no2)c1,inconclusive: -1.89%,–
Cc1cc(C(=O)OCC(=O)Nc2sc3c(c2C#N)CCC(C)C3)c2ccccc2n1 (stereo not drawn),inactive,–
Cc1ccccc1C(=O)N/N=C/c1ccccn1,–,"inconclusive: 18.4 µM [falling, partial curve]"
CC1(C)N(O)CC(c2cccs2)=[N+]1[O-],inconclusive: -3.76%,–
COc1ccc(OC)c(NC(=O)CN(c2ccc(C)cc2)S(=O)(=O)c2c(C)n[nH]c2C)c1,inconclusive: 16.3%,–
Cc1cc(/C=N/NC(N)=S)c(C)n1-c1ccc(Cl)cc1,–,"inconclusive: 25.9 µM [cytotoxic, single point]"

SMILES,"activity change, negative = inhibition",Potency
Cc1ccc(C(=O)CC(=O)c2ccccc2)cc1,inconclusive: 7%,–
COc1ccccc1Cn1cnc2cccnc21,–,"inconclusive: 0.082 µM [falling, full curve, poor fit]"
O=C(C1=C[C@H](c2csc3ccccc23)C[C@H](OCCCCO)O1)N1CCN(Cc2ccccc2)CC1,inconclusive: 0.758%,–
C#CCOCCOCCOCCNc1nc(N2CCN(C(=O)CCCCCCCCCCNC(=O)[C@H]([C@@H](C)CC)n3cc(CCCCN=C(N)N)nn3)CC2)nc(N2CCN(C(=O)CCCCCCCCCCNC(=O)[C@H](CO)n3cc(CCCCCN)nn3)CC2)n1,inconclusive: 4.51%,–
Cn1c(C(=O)Nc2ccc3c(c2)OCO3)cc2sccc21,inconclusive: 6.13%,–
Cc1onc(-c2c(F)cccc2Cl)c1C(=O)Nc1cccc(S(=O)(=O)N2CCOCC2)c1,inconclusive: -0.73%,–
COc1ccc2ccccc2c1/C=N/O,inconclusive: -18.9%,–
Cn1cc(CN2CCc3c([nH]c4ccccc34)C2C(C)(C)C)cn1 (stereo not drawn),inconclusive: -9.44%,–
Cc1cc(C(F)F)n2ncc(C(=O)NC3CCCCCC3)c2n1,inconclusive: -18.6%,–
CC1CCc2nc3ccccc3c(C(=O)OCC(=O)N3CCc4ccccc43)c2C1 (stereo not drawn),inactive,–
Cn1cc(C(c2ccccn2)c2cn(C)c3ccccc23)c2ccccc21,–,"inconclusive: 14.6 µM [falling, partial curve]"
C/C(N)=C(/C#N)C(=O)CSc1nnnn1-c1ccc(C)cc1C,inactive,–
CNc1nc(Nc2ccc(C)c(Cl)c2)nc(N)c1[N+](=O)[O-],inconclusive: 11.3%,–
Cc1c(/C(O)=C2\C(=O)C(=O)N(CCN(C)C)C2c2ccco2)cnn1-c1ccccc1 (stereo not drawn),–,"inconclusive: 16.4 µM [rising, partial curve]"
CC(=O)NC(=S)Nc1ccc(S(=O)(=O)N2CCOCC2)cc1,inconclusive: -0.157%,–
CC[n+]1c(/C=C(\C)OC)sc2ccccc21,–,"inconclusive: 35.5 µM [falling, single point]"
Cc1ccc(NC(=O)c2cc(S(=O)(=O)N3CCCCCC3)ccc2F)cc1F,inconclusive: 14.7%,–
O=C(/C=C/c1ccccc1Cl)Nc1cccc(O)c1,–,"inconclusive: 11.2 µM [falling, partial curve]"
Brc1cccc(-c2nnc(SCc3ccon3)n2-c2ccccc2)c1,inactive,–
Cc1nnsc1C(=O)Nc1ccc(S(=O)(=O)N2CCCC(C)C2)cc1 (stereo not drawn),inactive,–
C/C(Cn1cnc([N+](=O)[O-])n1)=N\NC(=O)c1ccccc1O,–,"inconclusive: 3.98 µM [rising, full curve, poor fit]"
Fc1ccccc1COc1ccc(/C=N/NC(=S)NCc2ccccc2)cc1,inconclusive: 0.672%,–
CCNC(=S)NNC(=O)c1cc(-c2cccc(OC)c2)nc2ccccc12,inconclusive: -0.942%,–
C[C@@]12C(=O)Nc3ccc(Br)cc3C(=O)N1[C@H]1c3ccccc3OC[C@@H]1[C@@H]2c1ccccc1,inconclusive: 11.7%,–
Cc1nc([N+](=O)[O-])c(Br)n1CC(=O)c1ccccc1,inactive,–
O=C(O)CC1SC(=O)N(CC(=O)c2ccccc2)C1=O (stereo not drawn),inactive,–

# Three records picked at random from those above:
SMILES,"activity change, negative = inhibition",Potency
COc1ccc(-c2nc3scc(CCNS(=O)(=O)c4c(C)cc(C)cc4C)n3n2)cc1OC,inactive,–
O=C(C1=C[C@H](c2csc3ccccc23)C[C@H](OCCCCO)O1)N1CCN(Cc2ccccc2)CC1,inconclusive: 0.758%,–
C[C@@]12C(=O)Nc3ccc(Br)cc3C(=O)N1[C@H]1c3ccccc3OC[C@@H]1[C@@H]2c1ccccc1,inconclusive: 11.7%,–

# From PubChem BioAssay AID493014 (National Center for Advancing Translational Sciences (NCATS), 2011)
